Data set [1] concerns the target T1, Rex-His6 (Streptomyces avermitilis ATCC31267) (UniProt Q82E78).
T1 sequence (looked up): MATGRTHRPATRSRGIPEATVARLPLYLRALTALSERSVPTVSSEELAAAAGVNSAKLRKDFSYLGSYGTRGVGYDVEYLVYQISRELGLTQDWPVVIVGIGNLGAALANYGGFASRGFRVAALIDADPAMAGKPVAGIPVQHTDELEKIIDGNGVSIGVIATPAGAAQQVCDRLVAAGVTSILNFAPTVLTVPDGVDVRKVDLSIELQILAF
In words: EMSA. To be noted: EMSA: DIG Gel Shift Kit (Roche) binding buffer, 1 ug poly[d(I-C)] in 20 ul, 30 min at 25 C, 5% native PAGE in 0.5x TBE, recombinant protein, residues 1-213, protein details: C-terminal His6, probe letters rebuilt from the primers and the genome. (A gel shift assay detects complexes by their altered migration in electrophoresis.)

Data set [2] addresses T1, Rex-His6 (Streptomyces avermitilis ATCC31267). In words: DNase I footprinting. To be noted: footprinting: 400 ng DNA in 25 ul, 30 min at 25 C, DNase I 40 s at 37 C, salt and pH not stated, recombinant protein, residues 1-213, protein details: C-terminal His6, probe letters rebuilt from the primers and the genome.
[3] abbreviates: up to 0.8 uM Rex, label: DIG-11-ddUTP 3'.
Setting [4] is: NADH, label: DIG-11-ddUTP 3' (EMSA), FAM 5' (footprint).
The mark [5] stands for this setting: 1.2 or 2.4 uM Rex, label: FAM 5'.

For part of these data: No signal at the amounts used counts as a negative. Tags and fusion partners may be left off the protein sequences shown. The comparison behind a weaker result is the experiment's own reference, which may not be listed here. For part of these data: For at least one entry, the source does not settle the construct or the ends of the probe.

Take “GAGTCTCTACGTGGCGATCGAGACGGCCCGCAACACCGGCCTCCACAGAGAGCCAGAACCCCTCCTCAATCCAAAGGACCACGTCAGTCCGTCTGACGATCGGCCCTTCACTTGTTGAGGGATTCGTGAAAGCGTTCACATTCACAAGCAACCTGAATGTAATACCAAGGAGAGGTAGCAGCCATGGA (double strand) [wblE promoter EMSA probe]”: the binding result in data set [1] (NADH, label: DIG-11-ddUTP 3') is on record as “binds more weakly”.
For the sequence “GCTGTCGTGGCGATCTACTCCAGGAAACGTAGACCTTTTTCTGCCACTTGTCCGAGCTATGCAGACACCCCGATCCCCTAAGAAATGAACACCCTTGGGAACGGCACAGCCCAGGGGTGGATAGGGGTATTCGCCGCCGCCGCGCCGTCATTAGCTTTGAAGAGTTGAAGACGTTCAAGACATTGATGCCCGGCCGTCAGCGGATTTCTCGCGCTCCTTTCATTCTTCGACGCTGCATTGCAGCTCTCATCATGTCCGCACGGCCGCCGAGCATTGCCTAGCGGTGAGGACACAGCTCAGGTGCAGAGGATGGACGG (double strand) [aveD-A1 intergenic probe]”, the binding result in data set [1] (setting [3]) is given as “no binding”.
As to “CCTCTGGACCCTTGCTCGCGGGTGCGGCGATGGCCTTCTCCTCCGGCTCGGGCGGTCAATCCGCCCGAGCCGTTTCCGCGGTCACCGCACCGCCATACATACCGGTCACCCGGTATTCCATTCGGTGTTGCAGCACGCGACCCACTGCGCATCCCACTCGTGAATTGTGGACCGCCATCCGGGGCACGGATGTCTCCAGGAAGGAACTCCTTCACCCTCGCGAACACCACCTCAGAATCCCACGATCATCAGTTAATCATCAAAGTCAGCGACCTTGACACTACCCCGCCCACCAGGGCAAATTCATAACACTGACCATCACCTCTGATGCTGATCAACCCAGCCCGCACGGCCGCGACCGCTTTTGCTCAAGCAATCGAAATCCCCGAGACACGCTTTCTTGGAAAAAGGAGAAATAAGAACATCATGCAGGGAGTTTCCTGTCTGCACCCCCTCGGAAACCAGAAGAACTCACG (double strand) [aveR promoter footprint fragment]”, in data set [2] (10 or 15 uM Rex, weak half-site binding, label: FAM 5'), the binding result is “binds more weakly”.
Regarding “CGTTGTCCAGGTGTTCTACGCGTACGGGCCTTCGGCAGGGCCTGGGTCGGTCGGGGTGTCGGCGAGGGTCGCGGTGAGATGTCCTGCGGGCCGGGAGAGCCGTATCCGCGGGGCCCGTTTTCGGCAGAGAGGTGACGGGGTCCGTTCTTAGGGACCCCCCACCCCTCTGACTTCGAACAGCCATGGGTCATAATTGCTTGTGAATGTGAACGCGTTCACAAGCGTGTCCGGGTTGTCCCGTGATGTGTGTGACATGCACGGCAAACTGCCGCTGTGACCACGGCGACGAAAGGAGAACGACGTGGAATTGGCTCTGGCGCCGGAGACCCTGGCGCGATGGCAGTTCGGCATCACCACC (double strand) [cydA1 promoter probe]”, the binding result was “binds” in data set [1] (NAD+ up to 1 mM, label: DIG-11-ddUTP 3' (EMSA), FAM 5' (footprint)); “binds more weakly” in data set [1] (setting [4]); “binds” in data set [1] (two retarded bands, label: DIG-11-ddUTP 3' (EMSA), FAM 5' (footprint)); “binds” in data set [2] (1.2 or 2.4 uM Rex, label: DIG-11-ddUTP 3' (EMSA), FAM 5' (footprint)).
Turning to “CTCGGATGCTTCGCGTATGAAGATCACCGCTCATCCGGCTTCATGATCCTTCGCCAGGTGGCAGAGATCACAAACTCCTTACTTACCCCCGTGTCGCAGATCACAGACCGCCGGGCATAGGATGCGCAGCAGTTGGGCTTGTGACCTGCTTCACATGTACGCGATCTTCGTCGGGACGCACGGGGTTCGTGGGACGTGTGAGGCGGGAGTGCTCGCCCGACGCAACCTCCCCCAAGGTCTCGGCTCCGCTCGACCAGGGGGACCCCCATGCAGTCAGTGCCGACTGAGAGGAGCGAGGAGCGTGAA (double strand) [nuoA1 promoter footprint fragment]”, the binding result in data set [2] (setting [5]) is “binds”.
Regarding “GCTTCATGATCCTTCGCCAGGTGGCAGAGATCACAAACTCCTTACTTACCCCCGTGTCGCAGATCACAGACCGCCGGGCATAGGATGCGCAGCAGTTGGGCTTGTGACCTGCTTCACATGTACGCGATCTTCGTCGGGACGCACGGGGTTCGTGGGACGTGTGAGGCGGGAGTGCTCGCCCGACGCAACCTCCCCCAAGGTCTCGGCTCCGCTCGACCAGGGGGACCCCCATGCAGTCAGTGCCGACTGAGAGGAGCGAGGAGCGTGAA (double strand) [nuoA1 promoter EMSA probe]”, in data set [1] (NADH, label: DIG-11-ddUTP 3'), the binding result is “binds more weakly”.
“CAGTTGCCACGGTGCTCCTGCGGGTAGCGCGGGGCTGCAGGCGGTCACACGTACCTAGACCGCCCCGTCGAAAGCAGGCTATGTCTTTGTGAACGCGTGCACAAAGATAGTGTCCGATTTGCCCGGCCAACGTGACCGGGGTCACGCGCCCCCGGCGTATGCGTATGGAACCGGCACACAGGCGCCTTCGTTCCTCACTCGACGGGGGCAAAACCGCACACACTCCTCAACGATCCACGCCCCCCGAGACCAAACCGCCCCCGATCCTAAGCGACTTTCCGGGCTGTTTGGACTACTC (double strand) [rex promoter probe]”: the binding result in data set [1] (setting [4]) is “binds more weakly”.
“GATGGCCTTCTCCTCCGGCTCGGGCGGTCAATCCGCCCGAGCCGTTTCCGCGGTCACCGCACCGCCATACATACCGGTCACCCGGTATTCCATTCGGTGTTGCAGCACGCGACCCACTGCGCATCCCACTCGTGAATTGTGGACCGCCATCCGGGGCACGGATGTCTCCAGGAAGGAACTCCTTCACCCTCGCGAACACCACCTCAGAATCCCACGATCATCAGTTAATCATCAAAGTCAGCGACCTTGACACTACCCCGCCCACCAGGGCAAATTCATAACACTGACCATCACCTCTGATGCTGATCAACCCAGCCCGCACGGCCGCGACCGCTTTTGCTCAAGCAATCGAAATCCCCGAGACACGCTTTCTTGGAAAAAGGAGAAATAAGAACATCATGCAGGGAGTTTCCTGTCTGCACCCCCTCGGAAACCAGAAGAACTCACG (double strand) [aveR promoter EMSA probe]”: the binding result in data set [1] (setting [3]) is on record as “no binding”.
Consider “GGTGGGCAGAGCACAGTGCAGGAGCGTTCGGGCGTCGTTGGACTGCATTGCGGCAGCTCCTCCGGCGAAATCTTGGGGGGGTTCGTTTCGGTCGTCGAGAGATGACCCTAGCCCGAGGTGAACGAGGCGTGCCTCGTACGGGCGGCCTGTCTCGCTCCGGCCGCCCCAATATATCTCGGGTTCTCGTGAACCGTATCACAAACTATTTGATGCAGTCTTTACCCGGAAGTGTGCTCACCGTCACACGAACGGGCCATGCGGTAGCTCAGCGAGATGACACCGCGGGTGTGGACTTGGTATGCGCGCGTGATCGCGAGCGCGGGCGGTGCGCGCGTGCTCAGTACGTGTAGAAACCCTGCCCGGACT (double strand) [atpI promoter footprint fragment]”, for which the binding result in data set [2] (setting [5]) is on record as “binds”.

Values taken from PMC5355995.
